The other results are listed elsewhere or left out.

The chains behind the UniProt entries cited, without tags or fusion partners. Where a name states a change or a piece, a line headed by the entry shows the natural chain unless it says otherwise.
UniProt Q9NPA0: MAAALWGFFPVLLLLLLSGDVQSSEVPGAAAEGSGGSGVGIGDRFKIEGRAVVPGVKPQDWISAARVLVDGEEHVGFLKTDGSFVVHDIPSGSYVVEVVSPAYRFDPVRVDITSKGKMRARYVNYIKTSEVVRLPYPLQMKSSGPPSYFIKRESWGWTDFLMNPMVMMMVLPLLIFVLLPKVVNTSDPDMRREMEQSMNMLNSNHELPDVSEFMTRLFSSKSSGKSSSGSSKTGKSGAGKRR
UniProt P05198, whole entry, looked up: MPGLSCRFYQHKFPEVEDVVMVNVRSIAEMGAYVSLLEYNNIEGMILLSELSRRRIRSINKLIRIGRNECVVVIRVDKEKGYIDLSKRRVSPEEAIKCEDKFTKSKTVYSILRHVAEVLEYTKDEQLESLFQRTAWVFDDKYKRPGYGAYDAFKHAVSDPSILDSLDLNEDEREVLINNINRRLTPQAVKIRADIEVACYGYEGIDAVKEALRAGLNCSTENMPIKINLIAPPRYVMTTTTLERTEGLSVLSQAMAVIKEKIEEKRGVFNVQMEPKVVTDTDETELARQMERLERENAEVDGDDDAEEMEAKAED
UniProt Q9NR50: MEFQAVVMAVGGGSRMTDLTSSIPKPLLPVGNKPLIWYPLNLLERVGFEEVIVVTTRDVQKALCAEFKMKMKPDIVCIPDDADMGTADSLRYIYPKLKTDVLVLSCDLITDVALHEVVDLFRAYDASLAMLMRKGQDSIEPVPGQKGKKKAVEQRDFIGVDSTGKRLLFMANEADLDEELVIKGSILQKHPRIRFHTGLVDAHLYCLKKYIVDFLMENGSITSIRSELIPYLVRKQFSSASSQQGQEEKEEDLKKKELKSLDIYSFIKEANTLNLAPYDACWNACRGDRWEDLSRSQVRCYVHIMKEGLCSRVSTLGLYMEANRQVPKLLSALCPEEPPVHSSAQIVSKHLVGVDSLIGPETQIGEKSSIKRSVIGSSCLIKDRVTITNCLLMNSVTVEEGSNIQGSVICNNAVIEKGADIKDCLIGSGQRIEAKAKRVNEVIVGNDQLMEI
UniProt Q9Y262, whole entry, looked up: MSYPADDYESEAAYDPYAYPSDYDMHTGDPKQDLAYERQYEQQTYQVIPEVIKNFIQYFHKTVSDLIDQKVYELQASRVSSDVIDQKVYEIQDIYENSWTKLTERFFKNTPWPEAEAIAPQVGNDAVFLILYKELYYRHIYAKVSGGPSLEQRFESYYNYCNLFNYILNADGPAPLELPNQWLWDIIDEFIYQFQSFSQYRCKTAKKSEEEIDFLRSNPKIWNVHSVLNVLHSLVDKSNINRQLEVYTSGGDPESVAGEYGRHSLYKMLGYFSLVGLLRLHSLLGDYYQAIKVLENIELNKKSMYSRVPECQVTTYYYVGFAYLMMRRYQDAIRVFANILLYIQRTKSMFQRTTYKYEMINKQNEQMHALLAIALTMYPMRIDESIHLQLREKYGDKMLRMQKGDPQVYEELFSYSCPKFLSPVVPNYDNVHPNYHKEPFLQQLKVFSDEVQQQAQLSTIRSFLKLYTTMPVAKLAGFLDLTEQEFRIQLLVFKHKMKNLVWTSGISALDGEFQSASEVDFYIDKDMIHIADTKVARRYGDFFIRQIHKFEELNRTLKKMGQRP
UniProt P49770: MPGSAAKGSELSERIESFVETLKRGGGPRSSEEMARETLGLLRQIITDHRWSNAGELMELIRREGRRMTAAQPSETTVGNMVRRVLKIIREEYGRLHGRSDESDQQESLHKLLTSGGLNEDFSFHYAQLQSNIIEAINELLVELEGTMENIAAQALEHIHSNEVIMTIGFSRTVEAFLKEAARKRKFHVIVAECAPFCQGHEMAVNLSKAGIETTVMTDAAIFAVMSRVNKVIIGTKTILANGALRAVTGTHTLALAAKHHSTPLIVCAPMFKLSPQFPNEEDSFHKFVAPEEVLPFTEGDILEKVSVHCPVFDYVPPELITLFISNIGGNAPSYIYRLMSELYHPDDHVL
UniProt O43768: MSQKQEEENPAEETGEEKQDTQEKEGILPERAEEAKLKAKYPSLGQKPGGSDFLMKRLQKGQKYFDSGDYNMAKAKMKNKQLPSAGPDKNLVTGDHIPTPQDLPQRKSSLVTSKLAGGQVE
UniProt Q6IA86: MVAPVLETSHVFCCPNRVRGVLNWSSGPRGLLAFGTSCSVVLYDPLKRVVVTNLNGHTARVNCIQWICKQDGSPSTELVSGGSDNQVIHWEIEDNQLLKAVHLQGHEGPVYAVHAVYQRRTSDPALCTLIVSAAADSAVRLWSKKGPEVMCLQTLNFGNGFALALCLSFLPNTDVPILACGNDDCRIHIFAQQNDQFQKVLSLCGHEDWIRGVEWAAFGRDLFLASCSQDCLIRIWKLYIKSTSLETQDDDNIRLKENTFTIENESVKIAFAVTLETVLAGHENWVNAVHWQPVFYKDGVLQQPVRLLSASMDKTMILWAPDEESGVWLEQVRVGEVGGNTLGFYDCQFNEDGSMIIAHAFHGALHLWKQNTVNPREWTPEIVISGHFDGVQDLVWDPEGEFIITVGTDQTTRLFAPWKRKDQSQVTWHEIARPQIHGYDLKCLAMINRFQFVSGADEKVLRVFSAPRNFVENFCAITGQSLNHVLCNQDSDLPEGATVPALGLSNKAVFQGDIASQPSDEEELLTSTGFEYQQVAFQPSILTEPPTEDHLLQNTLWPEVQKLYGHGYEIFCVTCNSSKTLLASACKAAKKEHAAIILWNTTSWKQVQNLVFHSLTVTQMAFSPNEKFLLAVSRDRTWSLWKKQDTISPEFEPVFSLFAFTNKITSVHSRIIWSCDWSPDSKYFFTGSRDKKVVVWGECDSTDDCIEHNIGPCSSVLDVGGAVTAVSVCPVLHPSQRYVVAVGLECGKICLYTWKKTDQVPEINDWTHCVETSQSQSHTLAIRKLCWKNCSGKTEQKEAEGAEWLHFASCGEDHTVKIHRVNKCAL
UniProt P47813, whole entry, looked up: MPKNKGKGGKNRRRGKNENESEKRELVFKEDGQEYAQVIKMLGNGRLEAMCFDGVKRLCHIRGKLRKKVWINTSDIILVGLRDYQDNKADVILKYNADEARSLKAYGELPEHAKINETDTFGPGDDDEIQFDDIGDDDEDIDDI
UniProt Q9BV81: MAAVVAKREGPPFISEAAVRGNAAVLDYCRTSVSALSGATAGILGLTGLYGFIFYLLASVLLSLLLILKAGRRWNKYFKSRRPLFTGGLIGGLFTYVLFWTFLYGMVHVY
UniProt P23588, whole entry, looked up: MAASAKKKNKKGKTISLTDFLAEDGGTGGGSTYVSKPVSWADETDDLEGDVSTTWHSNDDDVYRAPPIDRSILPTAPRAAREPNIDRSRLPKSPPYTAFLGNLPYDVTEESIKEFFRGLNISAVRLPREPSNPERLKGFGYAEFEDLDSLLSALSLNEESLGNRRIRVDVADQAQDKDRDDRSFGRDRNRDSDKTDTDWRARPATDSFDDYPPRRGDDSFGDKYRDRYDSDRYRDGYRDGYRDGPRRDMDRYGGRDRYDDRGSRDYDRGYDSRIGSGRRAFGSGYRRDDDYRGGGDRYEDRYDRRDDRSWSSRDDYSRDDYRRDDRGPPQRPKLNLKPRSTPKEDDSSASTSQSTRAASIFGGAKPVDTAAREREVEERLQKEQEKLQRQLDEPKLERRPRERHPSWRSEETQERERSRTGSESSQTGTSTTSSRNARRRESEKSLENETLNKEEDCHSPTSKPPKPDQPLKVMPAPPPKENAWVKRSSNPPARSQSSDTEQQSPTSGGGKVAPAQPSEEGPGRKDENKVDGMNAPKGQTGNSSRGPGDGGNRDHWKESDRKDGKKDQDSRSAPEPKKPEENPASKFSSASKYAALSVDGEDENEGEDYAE
UniProt O15372, whole entry, looked up: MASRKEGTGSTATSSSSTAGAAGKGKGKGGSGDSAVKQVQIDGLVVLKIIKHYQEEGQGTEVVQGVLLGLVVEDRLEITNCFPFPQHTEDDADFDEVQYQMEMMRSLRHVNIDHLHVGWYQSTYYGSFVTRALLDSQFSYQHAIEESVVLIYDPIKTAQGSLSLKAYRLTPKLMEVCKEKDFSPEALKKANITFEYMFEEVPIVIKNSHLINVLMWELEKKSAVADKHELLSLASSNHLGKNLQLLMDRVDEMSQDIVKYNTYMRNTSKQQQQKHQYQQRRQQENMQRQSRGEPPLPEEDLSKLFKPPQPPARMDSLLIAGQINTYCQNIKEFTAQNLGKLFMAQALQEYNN
UniProt Q8IZ81: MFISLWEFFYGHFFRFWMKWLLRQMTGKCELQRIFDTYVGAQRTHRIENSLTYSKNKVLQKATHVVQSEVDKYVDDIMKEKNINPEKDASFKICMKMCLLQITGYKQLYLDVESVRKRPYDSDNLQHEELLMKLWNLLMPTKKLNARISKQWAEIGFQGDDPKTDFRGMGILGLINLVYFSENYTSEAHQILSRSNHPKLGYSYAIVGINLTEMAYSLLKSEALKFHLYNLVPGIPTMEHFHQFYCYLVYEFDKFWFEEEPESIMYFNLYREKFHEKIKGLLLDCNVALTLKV
UniProt Q32P44: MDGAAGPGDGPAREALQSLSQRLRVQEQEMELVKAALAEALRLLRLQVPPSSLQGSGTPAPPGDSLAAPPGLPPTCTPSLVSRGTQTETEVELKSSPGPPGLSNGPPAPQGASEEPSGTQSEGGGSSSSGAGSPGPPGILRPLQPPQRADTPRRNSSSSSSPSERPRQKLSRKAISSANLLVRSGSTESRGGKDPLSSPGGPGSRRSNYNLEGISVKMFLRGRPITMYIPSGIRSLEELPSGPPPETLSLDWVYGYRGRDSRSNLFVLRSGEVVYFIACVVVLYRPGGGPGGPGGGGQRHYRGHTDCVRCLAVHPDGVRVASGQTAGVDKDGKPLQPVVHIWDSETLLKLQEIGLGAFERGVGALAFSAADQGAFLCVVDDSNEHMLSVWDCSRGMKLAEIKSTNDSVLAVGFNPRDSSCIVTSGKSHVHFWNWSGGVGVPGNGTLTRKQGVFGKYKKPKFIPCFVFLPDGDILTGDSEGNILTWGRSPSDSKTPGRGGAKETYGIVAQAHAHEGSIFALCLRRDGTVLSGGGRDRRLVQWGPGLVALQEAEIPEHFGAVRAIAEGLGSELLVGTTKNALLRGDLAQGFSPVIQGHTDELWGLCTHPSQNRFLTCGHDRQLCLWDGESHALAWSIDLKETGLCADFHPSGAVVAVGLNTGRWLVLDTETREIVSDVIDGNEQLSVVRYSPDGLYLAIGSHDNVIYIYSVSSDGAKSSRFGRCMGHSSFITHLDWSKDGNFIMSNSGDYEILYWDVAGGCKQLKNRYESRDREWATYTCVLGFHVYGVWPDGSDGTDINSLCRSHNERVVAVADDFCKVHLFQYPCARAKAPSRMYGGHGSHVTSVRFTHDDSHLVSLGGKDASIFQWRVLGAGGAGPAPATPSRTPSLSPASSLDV
UniProt Q96KQ7: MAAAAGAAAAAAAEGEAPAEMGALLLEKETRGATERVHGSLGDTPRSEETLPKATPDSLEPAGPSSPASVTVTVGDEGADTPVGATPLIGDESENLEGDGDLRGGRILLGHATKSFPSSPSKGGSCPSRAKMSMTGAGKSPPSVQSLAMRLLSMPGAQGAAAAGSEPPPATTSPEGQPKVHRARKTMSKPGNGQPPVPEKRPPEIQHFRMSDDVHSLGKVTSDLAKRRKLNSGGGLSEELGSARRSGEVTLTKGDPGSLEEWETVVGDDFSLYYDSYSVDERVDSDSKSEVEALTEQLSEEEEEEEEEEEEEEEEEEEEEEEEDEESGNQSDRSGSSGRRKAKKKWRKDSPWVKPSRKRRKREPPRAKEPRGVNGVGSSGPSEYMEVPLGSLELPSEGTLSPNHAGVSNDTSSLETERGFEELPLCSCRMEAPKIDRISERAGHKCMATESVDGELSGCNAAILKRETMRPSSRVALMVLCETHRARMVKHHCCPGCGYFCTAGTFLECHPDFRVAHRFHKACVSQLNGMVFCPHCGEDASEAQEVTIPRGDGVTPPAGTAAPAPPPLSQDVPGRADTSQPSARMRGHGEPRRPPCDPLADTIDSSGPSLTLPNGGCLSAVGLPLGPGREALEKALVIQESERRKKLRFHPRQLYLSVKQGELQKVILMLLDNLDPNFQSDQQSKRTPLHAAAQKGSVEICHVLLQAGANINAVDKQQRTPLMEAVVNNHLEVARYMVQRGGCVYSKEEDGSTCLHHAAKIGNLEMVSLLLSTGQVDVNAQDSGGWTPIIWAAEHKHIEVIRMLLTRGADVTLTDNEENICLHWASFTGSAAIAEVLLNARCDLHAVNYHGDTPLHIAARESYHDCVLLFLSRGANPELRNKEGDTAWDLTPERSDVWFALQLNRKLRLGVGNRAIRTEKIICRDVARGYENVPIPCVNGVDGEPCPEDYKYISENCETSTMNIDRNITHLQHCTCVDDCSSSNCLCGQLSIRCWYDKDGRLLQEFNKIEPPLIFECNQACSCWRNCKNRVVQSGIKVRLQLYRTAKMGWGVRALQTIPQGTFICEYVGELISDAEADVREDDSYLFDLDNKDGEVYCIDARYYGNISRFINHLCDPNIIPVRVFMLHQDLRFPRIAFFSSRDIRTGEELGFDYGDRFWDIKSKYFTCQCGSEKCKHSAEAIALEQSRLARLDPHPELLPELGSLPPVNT
UniProt P41567, whole entry, looked up: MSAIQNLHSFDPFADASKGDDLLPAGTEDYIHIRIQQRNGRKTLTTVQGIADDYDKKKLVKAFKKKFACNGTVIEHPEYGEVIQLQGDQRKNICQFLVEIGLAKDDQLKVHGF

Compound in the test: C#Cc1cccc(Nc2ncnc3cc(OCCOC)c(OCCOC)cc23)c1 [erlotinib]
Description: log2 fold change, soluble protein after heating vs DMSO (PISA); higher = thermal stabilisation; K562 cells, 10 uM, 30 min; active = over 0.2 and 3.5 SD of the protein, either way, in both replicates (recomputed). A digest of the protocol: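 K562 cells at 2×10^6 cells/mL were treated with 10 μM compound for 30 min. Aliquots were heated for 3 min across 48°C-58°C, pooled, and extracted in PBS with 0.5% NP-40 at 4°C; soluble protein was the supernatant after 21,000xg for 90 min. Soluble protein was quantified by TMTpro 16plex LC-MS/MS with channel sums equalised, and reported as log2 fold change in thermal stability against DMSO controls, with values from duplicates.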
For EMC7 (UniProt Q9NPA0), the log2 fold change is inactive: 0.02. For EIF2S1 (UniProt P05198) the value was inactive: -0.001.

For EIF3A (UniProt Q14152), the log2 fold change was inactive: 0.021. For EIF2B3 (UniProt Q9NR50) the value was inactive: 0.003; for ENO3 (UniProt P13929), inactive: -0.006.

On to EIF3L (UniProt Q9Y262), for which the log2 fold change was inactive: -0.031.

Turning to EPB41 (UniProt P11171), the log2 fold change is inactive: -0.025. For EIF2B2 (UniProt P49770) the value was inactive: -0.039; for ENSA isoform 3 (UniProt O43768), inactive: -0.02; for ELP2 isoform 6 (UniProt Q6IA86), inactive: -0.005. Next, EIF1AX (UniProt P47813): inactive: -0.04; EMC6 (UniProt Q9BV81): inactive: 0.146; EIF4B (UniProt P23588): inactive: 0.033.

On to EIF3H (UniProt O15372), for which the log2 fold change is inactive: -0.041. Turning to EEFSEC (UniProt P57772), the log2 fold change was inactive: 0.049. Regarding ELP4 (UniProt Q96EB1), the log2 fold change is inactive: 0.018. Regarding ELMOD2 (UniProt Q8IZ81), the log2 fold change is inactive: -0.066. For EML3 isoform 2 (UniProt Q32P44) the value was inactive: 0.059. For ELOB (UniProt Q15370) the value was inactive: -0.02; for EEF2 (UniProt P13639), inactive: -0.015.

With EI24 (UniProt O14681), the log2 fold change is inactive: 0.009. In the case of EHMT2 (UniProt Q96KQ7), the log2 fold change was inactive: 0.085. For EIF1 (UniProt P41567) the value was inactive: -0.09.

The record behind these values is the supplement of paper PMC10849652.
